From patent US20230203172A1
Results are given in words; binding and its absence hold for the method and conditions named. Some results given as binding are weak or reduced against the parent protein; the word gives no strength.

Protein sequences, listed by entry. Tags and fused reporters are not part of them. Residues count along the entry.
UniProt P24394, residues 26-232: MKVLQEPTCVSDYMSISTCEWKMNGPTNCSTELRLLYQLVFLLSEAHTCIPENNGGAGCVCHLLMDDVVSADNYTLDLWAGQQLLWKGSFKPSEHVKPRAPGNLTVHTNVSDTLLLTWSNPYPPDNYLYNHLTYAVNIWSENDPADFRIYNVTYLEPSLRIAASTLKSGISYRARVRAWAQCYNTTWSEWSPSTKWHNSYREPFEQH

The binders below were run against hIL-4R alpha-ECD-Fc (human) (UniProt P24394) (assay: ELISA, plate coated with 1 ug/ml hIL-4R alpha-ECD-Fc).

Binder	binding
murine anti-hIL-4R alpha monoclonal antibody 54 (antibody, V domains shown) VH: EVQLQQSGPELVKPGASVKIPCKASGYTFTDYNMDWVKQSHGKSLEWIGDINPNNGNILFNQKFKGKATLTVDKSSSTAYVELRSLTSEDTAVYYCGRGGLRRRGFMDYWGQGTSVTVSS VL: QIVLSQSPAILSASPGEKVTMTCRASSSVSYMHWYQQKPGSSPKPWIYAASNLASGVPARFSGSGSGTSYSLTISRVEAEDAATYYCQQWSSNPPTFGGGTKLEIK	binds
murine anti-hIL-4R alpha monoclonal antibody 57 (antibody, V domains shown) VH: EVQLQQSGPELVKPGASVKIPCKASGYTFTDYNMDWVKQSHGKSLEWIGDINPNNGNILFNQKFKGKATLTVDKSSSTAYVELRSLTSEDTAVYYCGRGGLRRRGFMDYWGQGTSVTVSS VL: QIVLSQSPAILSASPGEKVTMTCRASSSVSYMHWYQQKPGSSPKPWIYAASNLASGVPARFSGSGSGTSYSLTISRVEAEDAATYYCQQWSSNPPTFGGGTKLEIK	binds
murine anti-hIL-4R alpha monoclonal antibody 81 (antibody, V domains shown) VH: DVQLQQSGPELLKPGASVKIPCQASGYTFTDYNMDWVKQSHGKNLEWIGNINPNNGGTFYNQKFKGKATLTVDKSSSTAYMELRSLTSEDTAVYYCGRGGLRRRGFMDYWGQGTSVTVSS VL: QIVLSQSPAILSASPGEKVTMTCRASSSVIYIHWYQQKPGSSPKPWIYAASNLASGVPARFSGSGSGTSYSLTISRVEAEDAATYYCQQWSVNPPTFGGGTKLEIK	binds

Second part, the binder after the results:

binding	Binder
binds	murine anti-hIL-4R alpha monoclonal antibody 75 (antibody, V domains shown) VH: EVQLQQSGPELVKPGASVKIPCKASGYTFTDYNMDWVKQSHGKSLEWIGDINPNNGNILFNQKFKGKATLTVDKSSSTAYVELRSLTSEDTAVYYCGRGGLRRRGFMDYWGQGTSVTVSS VL: QIVLSQSPAILSASPGEKVTMTCRASSSVSYMHWYQQKPGSSPKPWIYAASNLASGVPARFSGSGSGTSYSLTISRVEAEDAATYYCQQWSSNPPTFGGGTKLEIK
binds	murine anti-hIL-4R alpha monoclonal antibody 120 (antibody, V domains shown) VH: EVQLVESGGGLVKPGGSLKLSCAASGFTFSDYGMHWVRQAPEKGLEWVAYISSGSTTIYYADTVKGRFTISRDNGKNTLFLQMTSLRSEDTAMYYCARISTVVAKRYAMDYWGQGTSVTVSS VL: DIQMTQTASSLSASLGDRVTISCRASQDISNYLNWYQQKPDGTVKLLIYYTSRLHSGVPSRFSGSGSGTDYSLTISNLEQEDIATYFCQQINALPLTFGAGTKLELK
